Laboratory results from patent US20210322508A1, “PEPTIDES AND COMPOSITIONS FOR TARGETED TREATMENT AND IMAGING” (SIGNABLOK, INC., priority 2018, published 2021).
These are yes or no findings as the source states them, for the method shown. Some entries that bind do so weakly or less than the wild type.

Legend:
[1] = molecular target: T1, TREM-1 (triggering receptor expressed on myeloid cells-1) on murine J774A.1 macrophages (mouse) (UniProt Q9JKE2); assay: confocal immunofluorescence on J774A.1 macrophages; DyLight 488-labelled G-KV21 pre-incubated with HDL against Alexa 647 rat anti-mouse TREM-1 antibody; colocalisation only, no direct binding assay
T1 sequence (looked up): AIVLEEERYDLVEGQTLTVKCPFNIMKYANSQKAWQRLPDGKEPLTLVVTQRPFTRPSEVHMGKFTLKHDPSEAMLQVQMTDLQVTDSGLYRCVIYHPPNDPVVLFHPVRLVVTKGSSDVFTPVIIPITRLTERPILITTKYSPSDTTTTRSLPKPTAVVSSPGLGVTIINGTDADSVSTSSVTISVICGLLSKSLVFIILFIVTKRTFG

[2] = molecular target: T1, TREM-1 (triggering receptor expressed on myeloid cells-1) on murine J774A.1 macrophages (mouse); assay: confocal immunofluorescence on J774 macrophages, labelled peptide against TREM-1 immunostaining; colocalisation only, no direct binding assay

binding [1]: binds
binding [2]: binds
B1: TREM-1-related trifunctional peptide (TREM-1/TRIOPEP) G-KV21, sulfoxidized methionine residue-containing (peptide)
peptide: GFLSKSLVFWQEEMELYRQKV
modifications: sulfoxidized methionine residue (the single Met)
